For test [1], the target named is T1, Pim1 (Lon protease homolog of yeast), Gal4 DNA-binding domain fusion from pGBD-C1-PIM1 (S. cerevisiae) (UniProt P36775).
T1 sequence: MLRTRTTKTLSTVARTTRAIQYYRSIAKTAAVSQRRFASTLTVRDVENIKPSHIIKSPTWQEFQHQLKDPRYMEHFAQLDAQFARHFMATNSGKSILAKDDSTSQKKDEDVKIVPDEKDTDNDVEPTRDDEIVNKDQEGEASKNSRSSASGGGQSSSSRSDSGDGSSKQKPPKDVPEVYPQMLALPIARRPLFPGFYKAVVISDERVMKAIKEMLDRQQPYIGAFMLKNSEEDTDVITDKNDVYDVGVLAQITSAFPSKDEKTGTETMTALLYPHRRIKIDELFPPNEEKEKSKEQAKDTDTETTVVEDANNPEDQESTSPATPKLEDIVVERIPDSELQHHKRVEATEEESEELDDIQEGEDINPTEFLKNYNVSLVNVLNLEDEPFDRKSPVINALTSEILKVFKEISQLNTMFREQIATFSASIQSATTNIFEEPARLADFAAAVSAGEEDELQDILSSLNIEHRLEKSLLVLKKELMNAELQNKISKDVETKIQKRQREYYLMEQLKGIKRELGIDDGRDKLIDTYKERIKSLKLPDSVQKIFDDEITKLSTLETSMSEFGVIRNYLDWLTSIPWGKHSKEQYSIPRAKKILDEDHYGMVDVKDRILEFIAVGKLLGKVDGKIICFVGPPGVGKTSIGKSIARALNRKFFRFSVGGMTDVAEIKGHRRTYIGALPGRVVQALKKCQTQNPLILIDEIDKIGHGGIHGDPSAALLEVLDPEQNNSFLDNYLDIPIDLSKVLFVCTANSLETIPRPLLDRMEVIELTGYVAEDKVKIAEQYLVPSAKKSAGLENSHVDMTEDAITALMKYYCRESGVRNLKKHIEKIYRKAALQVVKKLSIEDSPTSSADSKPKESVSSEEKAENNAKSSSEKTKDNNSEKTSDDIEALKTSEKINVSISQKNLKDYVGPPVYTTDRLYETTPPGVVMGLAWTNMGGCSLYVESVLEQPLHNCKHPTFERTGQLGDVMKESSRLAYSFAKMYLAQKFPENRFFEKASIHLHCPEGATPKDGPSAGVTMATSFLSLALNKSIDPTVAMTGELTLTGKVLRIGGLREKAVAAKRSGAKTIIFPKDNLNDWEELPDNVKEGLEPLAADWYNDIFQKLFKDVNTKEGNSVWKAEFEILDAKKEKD
Nature of the test: two-hybrid; Gal4 system in strain PJ69-4A; Pim1 in pGBD-C1, Pam16 or Pam18 in pGAD-C1; serial dilutions spotted on minimal media, 30°C, 2 days; growth without histidine, no growth without adenine.

Test [2] has as its target T2, Pim1 (Lon protease homolog of yeast), endogenous (S. cerevisiae (endogenous in WT yeast cells)) (UniProt P36775).
T2 sequence: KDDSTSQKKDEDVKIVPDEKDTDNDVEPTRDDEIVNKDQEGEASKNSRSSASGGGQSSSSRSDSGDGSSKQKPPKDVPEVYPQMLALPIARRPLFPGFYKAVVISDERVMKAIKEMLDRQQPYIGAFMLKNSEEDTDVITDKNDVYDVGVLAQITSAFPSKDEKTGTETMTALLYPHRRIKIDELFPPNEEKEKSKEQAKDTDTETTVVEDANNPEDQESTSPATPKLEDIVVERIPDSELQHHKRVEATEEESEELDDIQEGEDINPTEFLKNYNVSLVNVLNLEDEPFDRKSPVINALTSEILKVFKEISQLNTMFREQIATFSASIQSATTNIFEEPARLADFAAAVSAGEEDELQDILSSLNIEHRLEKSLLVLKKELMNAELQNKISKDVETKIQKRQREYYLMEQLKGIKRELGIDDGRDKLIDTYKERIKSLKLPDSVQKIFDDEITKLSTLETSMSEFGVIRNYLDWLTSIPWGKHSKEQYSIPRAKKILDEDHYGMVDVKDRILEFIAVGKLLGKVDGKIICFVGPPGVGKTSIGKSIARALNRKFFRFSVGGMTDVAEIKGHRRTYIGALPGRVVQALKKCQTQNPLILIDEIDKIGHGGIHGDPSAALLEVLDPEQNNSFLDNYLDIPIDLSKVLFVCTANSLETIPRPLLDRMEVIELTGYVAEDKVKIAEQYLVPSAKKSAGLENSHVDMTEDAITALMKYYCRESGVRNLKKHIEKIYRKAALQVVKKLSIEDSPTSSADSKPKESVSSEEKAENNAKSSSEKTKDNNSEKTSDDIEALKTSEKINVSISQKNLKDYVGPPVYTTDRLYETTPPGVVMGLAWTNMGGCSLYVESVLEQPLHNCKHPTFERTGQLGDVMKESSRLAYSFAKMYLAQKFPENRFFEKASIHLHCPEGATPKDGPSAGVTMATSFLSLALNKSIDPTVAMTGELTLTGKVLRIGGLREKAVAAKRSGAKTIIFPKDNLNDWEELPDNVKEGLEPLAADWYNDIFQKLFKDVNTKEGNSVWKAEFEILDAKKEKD
Nature of the test: co-IP; 1 mg lysate of WT yeast cells, precleared, Pim1 antibody overnight at 4°C, Protein A/G PLUS-Agarose beads; blots with Pim1, Pam16 and Pam18 antibodies; pim1Δ cells as control.

Results are given in words; binding and its absence hold for the method and conditions named. For some of these results: In cells and extracts the contact can be indirect. Some results given as binding are weak or reduced against the parent protein; the word gives no strength. For some of these results: Sequences can lack the tags named with a protein.

For 4 molecules, binding results are on record in PMC12687454.

B1: Pam16, Gal4 activation domain fusion from pGAD-C1-PAM16 (protein, UniProt P42949 1-149)
chain: MAHRAFIQVIITGTQVFGKAFAEAYRQAASQSVKQGATNASRRGTGKGEYGGITLDESCKILNIEESKGDLNMDKINNRFNYLFEVNDKEKGGSFYLQSKVYRAAERLKWELAQREKNAKAKAGDASTAKPPPNSTNSSGADNSASSNQ
With B1, the binding result in test [1] is recorded as “binds weakly”.

B2: Pam16, endogenous (protein, UniProt P42949 1-149)
chain: MAHRAFIQVIITGTQVFGKAFAEAYRQAASQSVKQGATNASRRGTGKGEYGGITLDESCKILNIEESKGDLNMDKINNRFNYLFEVNDKEKGGSFYLQSKVYRAAERLKWELAQREKNAKAKAGDASTAKPPPNSTNSSGADNSASSNQ
With B2, the binding entry in test [2] is on record as “binds”.

B3: Pam18, Gal4 activation domain fusion from pGAD-C1-PAM18 (protein, UniProt Q07914 1-168)
chain: MSSQSNTGNSIEAPQLPIPGQTNGSANVTVDGAGVNVGIQNGSQGQKTGMDLYFDQALNYMGEHPVITGFGAFLTLYFTAGAYKSISKGLNGGKSTTAFLKGGFDPKMNSKEALQILNLTENTLTKKKLKEVHRKIMLANHPDKGGSPFLATKINEAKDFLEKRGISK
B3: in test [1], the binding entry is recorded as “binds weakly”.

B4: Pam18, endogenous (protein, UniProt Q07914 1-168)
chain: MSSQSNTGNSIEAPQLPIPGQTNGSANVTVDGAGVNVGIQNGSQGQKTGMDLYFDQALNYMGEHPVITGFGAFLTLYFTAGAYKSISKGLNGGKSTTAFLKGGFDPKMNSKEALQILNLTENTLTKKKLKEVHRKIMLANHPDKGGSPFLATKINEAKDFLEKRGISK
Take B4: the binding entry in test [2] is recorded as “binds”.
